Data published in publication PMC10131372.
No constants are given. Whether binding was seen depends on the method and setting. In cells and extracts the contact can be indirect. Some results given as binding are weak or reduced against the parent protein; the word gives no strength.

Tests used:
[1] = molecular target: T1, SCL/TAL1 interrupting locus (STIL) (human (endogenous in EJ)) (UniProt Q15468); experiment: co-IP; EJ cell lysate (IP Lysis/Wash Buffer with 1% PMSF); anti-STIL, anti-AURKA or mouse IgG antibody immobilised on AminoLink Plus coupling resin (Pierce co-IP kit); 4 °C overnight; Western blot
T1 sequence: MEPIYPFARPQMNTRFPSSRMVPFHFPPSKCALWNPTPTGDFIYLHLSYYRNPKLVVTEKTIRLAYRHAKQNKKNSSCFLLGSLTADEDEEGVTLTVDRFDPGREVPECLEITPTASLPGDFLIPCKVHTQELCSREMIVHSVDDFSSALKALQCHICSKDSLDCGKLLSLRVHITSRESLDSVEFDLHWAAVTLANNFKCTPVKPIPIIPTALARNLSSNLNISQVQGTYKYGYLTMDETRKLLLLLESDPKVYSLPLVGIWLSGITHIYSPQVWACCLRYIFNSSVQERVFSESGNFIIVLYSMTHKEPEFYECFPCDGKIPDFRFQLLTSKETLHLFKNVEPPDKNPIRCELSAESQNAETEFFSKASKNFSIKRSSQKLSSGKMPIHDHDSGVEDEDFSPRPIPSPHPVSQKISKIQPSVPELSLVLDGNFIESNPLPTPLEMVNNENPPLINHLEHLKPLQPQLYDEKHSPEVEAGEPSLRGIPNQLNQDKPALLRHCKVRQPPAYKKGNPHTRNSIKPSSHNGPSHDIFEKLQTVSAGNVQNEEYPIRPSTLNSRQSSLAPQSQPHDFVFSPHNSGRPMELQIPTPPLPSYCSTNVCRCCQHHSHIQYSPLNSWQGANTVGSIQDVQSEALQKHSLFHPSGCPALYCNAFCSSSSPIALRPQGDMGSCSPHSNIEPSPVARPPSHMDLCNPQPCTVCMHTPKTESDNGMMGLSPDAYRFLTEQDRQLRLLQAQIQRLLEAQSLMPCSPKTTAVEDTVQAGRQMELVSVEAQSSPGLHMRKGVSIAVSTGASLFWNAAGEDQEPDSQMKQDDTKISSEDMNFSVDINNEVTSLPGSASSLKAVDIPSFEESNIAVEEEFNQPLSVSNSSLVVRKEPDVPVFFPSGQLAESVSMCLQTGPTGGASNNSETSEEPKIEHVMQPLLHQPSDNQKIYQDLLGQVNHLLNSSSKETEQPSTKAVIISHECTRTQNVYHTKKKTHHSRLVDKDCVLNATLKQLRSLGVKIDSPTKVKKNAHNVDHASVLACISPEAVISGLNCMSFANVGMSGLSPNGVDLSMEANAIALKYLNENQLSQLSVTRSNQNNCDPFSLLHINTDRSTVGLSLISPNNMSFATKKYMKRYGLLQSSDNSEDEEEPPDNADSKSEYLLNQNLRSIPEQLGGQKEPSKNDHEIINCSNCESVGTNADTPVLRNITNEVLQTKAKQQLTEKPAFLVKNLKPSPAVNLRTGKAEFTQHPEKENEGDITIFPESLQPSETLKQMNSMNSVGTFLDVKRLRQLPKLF

[2] = molecular target: T2, Aurora kinase A (AURKA) (human (endogenous in EJ)) (UniProt O14965); experiment: as above
T2 sequence: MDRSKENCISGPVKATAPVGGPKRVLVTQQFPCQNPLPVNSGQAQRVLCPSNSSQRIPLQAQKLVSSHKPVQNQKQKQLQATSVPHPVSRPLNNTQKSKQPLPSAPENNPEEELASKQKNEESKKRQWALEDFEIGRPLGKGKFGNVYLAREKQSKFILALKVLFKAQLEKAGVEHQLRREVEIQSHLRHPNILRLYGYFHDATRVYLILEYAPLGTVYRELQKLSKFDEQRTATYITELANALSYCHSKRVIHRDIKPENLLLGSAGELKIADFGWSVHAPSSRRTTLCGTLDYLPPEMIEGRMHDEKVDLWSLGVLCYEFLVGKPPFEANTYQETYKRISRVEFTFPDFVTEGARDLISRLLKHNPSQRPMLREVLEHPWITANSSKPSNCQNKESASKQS

B1: Aurora kinase A (AURKA) (protein, UniProt O14965 1-403)
chain: MDRSKENCISGPVKATAPVGGPKRVLVTQQFPCQNPLPVNSGQAQRVLCPSNSSQRIPLQAQKLVSSHKPVQNQKQKQLQATSVPHPVSRPLNNTQKSKQPLPSAPENNPEEELASKQKNEESKKRQWALEDFEIGRPLGKGKFGNVYLAREKQSKFILALKVLFKAQLEKAGVEHQLRREVEIQSHLRHPNILRLYGYFHDATRVYLILEYAPLGTVYRELQKLSKFDEQRTATYITELANALSYCHSKRVIHRDIKPENLLLGSAGELKIADFGWSVHAPSSRRTTLCGTLDYLPPEMIEGRMHDEKVDLWSLGVLCYEFLVGKPPFEANTYQETYKRISRVEFTFPDFVTEGARDLISRLLKHNPSQRPMLREVLEHPWITANSSKPSNCQNKESASKQS
With B1 the binding [1] was “binds”.

B2: SCL/TAL1 interrupting locus (STIL) (protein, UniProt Q15468 1-1287)
chain: MEPIYPFARPQMNTRFPSSRMVPFHFPPSKCALWNPTPTGDFIYLHLSYYRNPKLVVTEKTIRLAYRHAKQNKKNSSCFLLGSLTADEDEEGVTLTVDRFDPGREVPECLEITPTASLPGDFLIPCKVHTQELCSREMIVHSVDDFSSALKALQCHICSKDSLDCGKLLSLRVHITSRESLDSVEFDLHWAAVTLANNFKCTPVKPIPIIPTALARNLSSNLNISQVQGTYKYGYLTMDETRKLLLLLESDPKVYSLPLVGIWLSGITHIYSPQVWACCLRYIFNSSVQERVFSESGNFIIVLYSMTHKEPEFYECFPCDGKIPDFRFQLLTSKETLHLFKNVEPPDKNPIRCELSAESQNAETEFFSKASKNFSIKRSSQKLSSGKMPIHDHDSGVEDEDFSPRPIPSPHPVSQKISKIQPSVPELSLVLDGNFIESNPLPTPLEMVNNENPPLINHLEHLKPLQPQLYDEKHSPEVEAGEPSLRGIPNQLNQDKPALLRHCKVRQPPAYKKGNPHTRNSIKPSSHNGPSHDIFEKLQTVSAGNVQNEEYPIRPSTLNSRQSSLAPQSQPHDFVFSPHNSGRPMELQIPTPPLPSYCSTNVCRCCQHHSHIQYSPLNSWQGANTVGSIQDVQSEALQKHSLFHPSGCPALYCNAFCSSSSPIALRPQGDMGSCSPHSNIEPSPVARPPSHMDLCNPQPCTVCMHTPKTESDNGMMGLSPDAYRFLTEQDRQLRLLQAQIQRLLEAQSLMPCSPKTTAVEDTVQAGRQMELVSVEAQSSPGLHMRKGVSIAVSTGASLFWNAAGEDQEPDSQMKQDDTKISSEDMNFSVDINNEVTSLPGSASSLKAVDIPSFEESNIAVEEEFNQPLSVSNSSLVVRKEPDVPVFFPSGQLAESVSMCLQTGPTGGASNNSETSEEPKIEHVMQPLLHQPSDNQKIYQDLLGQVNHLLNSSSKETEQPSTKAVIISHECTRTQNVYHTKKKTHHSRLVDKDCVLNATLKQLRSLGVKIDSPTKVKKNAHNVDHASVLACISPEAVISGLNCMSFANVGMSGLSPNGVDLSMEANAIALKYLNENQLSQLSVTRSNQNNCDPFSLLHINTDRSTVGLSLISPNNMSFATKKYMKRYGLLQSSDNSEDEEEPPDNADSKSEYLLNQNLRSIPEQLGGQKEPSKNDHEIINCSNCESVGTNADTPVLRNITNEVLQTKAKQQLTEKPAFLVKNLKPSPAVNLRTGKAEFTQHPEKENEGDITIFPESLQPSETLKQMNSMNSVGTFLDVKRLRQLPKLF
B2 was tested, and the binding [2] was “binds”.
